According to patent US11260118B2, “Immunogenic peptide composition” (Cancer Research Malaysia, priority 2017, dated 2022):
Not every detail of the peptide structures is certain; ends, links or a residue may be inferred. Where no end group is shown, it is not given here.

Assays:
[1] = test system: IFNγ and Granzyme B secreting T cells from patient PBMCs; assay: Ex vivo ELISPOT (IFNγ, granzyme B) on patient PBMCs; assay type: cell-based, human; conditions: 50 μg/ml peptide, HNSCC patient PBMCs
[2] = test system: endogenous FJX1 and MAGED4b specific CD8+ T cells in PBMCs of HNSCC patients; assay: HLA-A2:Ig dimer assay on patient PBMCs; assay type: cell-based, human; conditions: PBMCs of HLA-A2 positive HNSCC patients (15 samples); after subtracting non-peptide loaded dimer control

Sequence | inherent T cell response (IFNγ, granzyme B) prior to peptide stimulation [1] | average population of antigen-specific CD8+ T cells that recognise the peptide-loaded dimers [2]
RLSLLLVIL [M6] | low | 4.6%
WLLALGSLLAL [F1, WLLALGSLLAL] | low | 2.6%
